Laboratory results as given in paper doi:10.1101/2023.07.19.549485.

Legend:
[1] = target: ZNF4-HA (C3H1 zinc finger protein ZNF4, HA-tagged) (P. falciparum) (UniProt Q8II18); assay: co-IP
[2] = target: PUF1-HA (PUF1 fused to an HA-tag) (P. falciparum) (UniProt Q8I3S3); assay: co-IP

MD3 (male development 3), endogenous (from UniProt O97271)
binding [1]: binds | binding [2]: binds

Results are given in words; binding and its absence hold for the method and conditions named. Binding seen in cells or lysates may run through a third protein. Binding calls can cover weak binding; strength is not graded here.
